The other results are listed elsewhere or left out. The main result of the screen is listed elsewhere. These columns were measured beside it and carry no call. Compounds called inactive in the main read-out are mostly missing here. The note in brackets gives the kind of curve behind each potency; many fits are weak.
Assay: qHTS Assay for Lipid Storage Modulators in Drosophila S3 Cells;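 for cell number change: cells counted by Cell Tracker Red CMTPX staining in the red channel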
Details: BODIPY lipid droplet fluorescence, 18-24 h; for cell number change: measured here: cell count max response, cells fed with added oleic acid
How it was run: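 Drosophila S3 cells got compounds at several concentrations plus oleic acid (400 uM solution). Laser-scanning cytometry with 488 nm excitation read lipid droplets at 500-530 nm and cells at 575-640 nm. Percent activity was relative to 20 uM Triacsin C.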

[1] = measured here: cell number channel AC50, cells fed with added oleic acid
[2] = measured here: lipid fluorescence (Fed channel) AC50, cells fed with added oleic acid

CCOC(=O)c1sc(NC(=O)CSc2n[nH]c(CC(C)C)n2)nc1C
cell number change: -72.1%
AC50 [1]: 23.1 µM [falling, single point]
AC50 [2]: 16.4 µM [falling, partial curve]

Cc1cccc(N2CCN(C(=O)Cn3cccc3)CC2)c1C
cell number change: 32.4%
AC50 [1]: 29.1 µM [rising, single point]
AC50 [2]: 0.146 µM [rising, full curve]

CCOC(=O)C1(Cc2cccc(OC)c2)CCN(Cc2ccccc2)CC1
cell number change: -18.9%
AC50 [2]: 29.1 µM [falling, single point]

Cc1ccc(N2C(=O)C3C4C=CC(CNC(=S)Nc5ccc(Cl)cc5)(O4)C3C2=O)cc1 (centres undefined)
cell number change: 30.9%
AC50 [1]: 29.1 µM [rising, single point]
AC50 [2]: 0.651 µM [rising, single point]

CCOC(=O)NC(=O)/C(C=Nc1ccc(Cl)cc1)=C(\C)O
cell number change: -12.9%
AC50 [2]: 0.58 µM [falling, single point]

O=c1c2ccccc2nnn1Cc1cccc2ccccc12
cell number change: 3.82%
AC50 [2]: 1.64 µM [falling, partial curve]

CC(C(=O)O)n1cnc2sc3c(c2c1=O)CCCC3 (centres undefined)
cell number change: -16.7%
AC50 [2]: 0.651 µM [falling, single point]

Cc1ccc(-c2cc(C(F)F)n3ncc(C(=O)NN4CCCCC4)c3n2)cc1
cell number change: -19.3%

O=C(Cc1sc(-c2ccccc2)nc1-c1ccccc1)Nc1ccccc1
cell number change: 16%
AC50 [2]: 2.06 µM [rising, partial curve]

Cn1c(SCC(=O)N2CCCC2)nnc1-c1cnccn1
AC50 [1]: 3.66 µM [rising, partial curve, poor fit]
AC50 [2]: 0.517 µM [rising, partial curve, poor fit]

CCNS(=O)(=O)c1ccc(NC(=O)Nc2cc(C)ccc2OC)cc1
cell number change: -21.6%
AC50 [2]: 1.84 µM [falling, partial curve]

CCOc1cc(NC(=S)NCC2CCCO2)c(OCC)cc1NC(=O)c1ccccc1F (centres undefined)
cell number change: 15.8%
AC50 [2]: 0.00517 µM [falling, full curve, poor fit]

Cc1ccccc1Oc1cc(NC(=O)Cn2cnc([N+](=O)[O-])c2)cc([N+](=O)[O-])c1
cell number change: 0.24%
AC50 [2]: 0.00461 µM [falling, full curve, poor fit]

COc1ccc(-n2nnnc2-c2cccnc2)cc1
cell number change: -4.33%

CC(=O)c1cccc(NC(=O)CN2C(=O)NC(C)(c3ccc4c(c3)OCCCO4)C2=O)c1 (centres undefined)
cell number change: 13.9%
AC50 [2]: 29.1 µM [rising, single point]

O=C(Nc1nc(-c2cc(Cl)sc2Cl)cs1)c1ccccc1
cell number change: 18.8%
AC50 [2]: 0.58 µM [rising, single point]

CCc1cc(=O)oc2cc(C)cc(OCC(=O)NC(Cc3c[nH]c4ccc(O)cc34)C(=O)O)c12 (centres undefined)
cell number change: 22%
AC50 [2]: 0.58 µM [rising, single point]

CCCCn1c(NCc2cccs2)nc2ccccc21
cell number change: 21%
AC50 [1]: 3.66 µM [rising, single point]

COc1cccc(NC(=O)COC(=O)c2c3c(nc4ccccc24)CCC(C)C3)c1 (centres undefined)
cell number change: -49.3%
AC50 [1]: 29.1 µM [falling, single point]
AC50 [2]: 7.31 µM [falling, partial curve]

Cc1onc(-c2ccccc2Cl)c1C(=O)Nc1ccccc1C(N)=O
cell number change: -7.18%

C=CCn1c(SCC(=O)Nc2ccc(N(C)C)cc2)nnc1-c1cccc(C)c1
cell number change: 16.1%
AC50 [1]: 0.326 µM [rising, full curve, poor fit]
AC50 [2]: 14.6 µM [rising, partial curve]

CCOc1cc(C(N)=O)cc(Br)c1OCC
cell number change: 9.32%
AC50 [2]: 23.1 µM [rising, single point]

C=CCN1C(=O)C2(NNc3ccccc3O2)c2ccccc21 (centres undefined)
cell number change: -50.8%
AC50 [1]: 29.1 µM [falling, single point]
AC50 [2]: 23.1 µM [falling, partial curve]

CCC1(C)Cc2c(sc3nc(SC)n(Cc4ccccc4)c(=O)c23)CO1 (centres undefined)
cell number change: 0.678%
AC50 [2]: 6.51 µM [rising, single point]

CC(CC(=O)O)CC1=NS(=O)(=O)c2ccccc2N1 (centres undefined)
AC50 [2]: 10.3 µM [falling, partial curve]

COc1ccc(-c2cc(C)no2)cc1S(=O)(=O)Nc1cccc(C)c1
cell number change: -6.59%
AC50 [2]: 5.17 µM [rising, partial curve]

CCc1ccc(N2CC(C(=O)OCC(=O)Nc3ccc(C(C)=O)cc3)CC2=O)cc1 (centres undefined)
cell number change: -3.92%
AC50 [2]: 0.231 µM [falling, full curve]

O=C(NCCc1c[nH]c2ccccc12)c1ccc2nc[nH]c2c1
AC50 [2]: 29.1 µM [rising, single point]

O=C(c1ccc(Br)o1)N1CCN(c2ncccn2)CC1
cell number change: 87.9%
AC50 [1]: 0.517 µM [rising, full curve]
AC50 [2]: 18.4 µM [rising, partial curve]

O=C(Nc1ccncc1)c1cc2ccccc2cc1O
cell number change: 13.1%
AC50 [2]: 8.2 µM [rising, partial curve]

CC(=O)N1CCN(c2ccc(Oc3ncnc4sccc34)cc2)CC1
AC50 [2]: 0.092 µM [falling, full curve, poor fit]

CCCCCCOC(=O)C[N+](C)(C)CCOC1CC2CCC1(C)C2(C)C (centres undefined)
cell number change: -70.4%
AC50 [1]: 29.1 µM [falling, single point]
AC50 [2]: 29.1 µM [falling, single point]

COc1ccc(CN(C(=O)c2snc(C(N)=O)c2N)C(CC(C)C)C(=O)NC2CCCCC2)cc1 (centres undefined)
cell number change: -25.4%
AC50 [2]: 29.1 µM [falling, single point]

N#C/C(=C\c1cccs1)C(=O)c1ccccc1
cell number change: 9.1%
AC50 [1]: 3.66 µM [falling, single point]

CN(CC(=O)Nc1ccc(Cl)cc1)CC(=O)Nc1cccc2ccccc12
cell number change: -24.5%
AC50 [2]: 2.91 µM [falling, partial curve]

CCNc1c([N+](=O)[O-])ncn1C
cell number change: -5.94%
AC50 [2]: 23.1 µM [falling, partial curve]

CC(C)(C)C(=O)NC(C(N)=O)=C(Cl)Cl
cell number change: -15.4%
AC50 [1]: 0.092 µM [falling, full curve]

O=c1[nH]c2cc3c(cc2cc1CN(CCc1ccccc1)Cc1nnnn1C1CCCC1)OCCO3
cell number change: -8.93%

CCCS(=O)(=O)Nc1c(OC)ccc2c1c(C(=O)OCC)c(C)n2C
cell number change: 0.854%
AC50 [2]: 2.59 µM [rising, single point]

Cc1ccccc1NC(=O)Cc1nc(COC(=O)COc2ccccc2C(C)C)cs1
cell number change: -21.9%
AC50 [2]: 20.6 µM [falling, single point]

Cc1cc(O)c(NC(=O)c2ccc(C)c([N+](=O)[O-])c2)cc1C
cell number change: 16.2%
AC50 [2]: 0.0058 µM [rising, full curve, poor fit]

O=C(Nc1ccc(C(=O)O)cc1)Nc1ccc(F)cc1F
cell number change: 16.8%

COc1cc(CO)cc(Br)c1OCC(=O)Nc1cccc2ccccc12
cell number change: 34.7%
AC50 [1]: 0.259 µM [rising, full curve, poor fit]
AC50 [2]: 0.259 µM [rising, partial curve, poor fit]

Clc1ccc(-c2cnc3n2CCC3)cc1
cell number change: -10.2%

O=C(COC(=O)CCCOc1ccccc1)NNC(=O)c1ccc([N+](=O)[O-])cc1
cell number change: 12.1%

COc1ccccc1CC(=O)N1CCC(n2nccc2NC(=O)C2CCOC2)CC1 (centres undefined)
cell number change: -24%
AC50 [2]: 0.291 µM [falling, full curve, poor fit]

Cc1cc(OCC(=O)N(C)Cc2ccccc2)ccc1Br
cell number change: -7.72%
AC50 [2]: 29.1 µM [falling, partial curve, poor fit]

Cc1cc(C(=O)NNC(=O)c2ccc(Cl)cc2)no1
cell number change: 1.42%
AC50 [2]: 0.00517 µM [falling, full curve, poor fit]

COc1ccc(-c2nc3c(n2O)CCC/C3=N\O)cc1
AC50 [2]: 5.8 µM [falling, single point]

C=CCn1c(SCC(=O)c2cc(C)n(Cc3cccs3)c2C)nnc1-c1ccncc1
cell number change: 11.8%
AC50 [1]: 1.64 µM [rising, partial curve]
AC50 [2]: 5.8 µM [rising, full curve]

CCc1ccc[n+](-c2nc([O-])sc2C=O)c1
cell number change: -23.2%

CC(=O)c1ccc(N2CCN(C(=O)CCS(=O)(=O)c3ccc4c(c3)CCN4C(C)=O)CC2)cc1
cell number change: 1.65%
AC50 [1]: 0.0731 µM [rising, full curve, poor fit]

COc1ccc(C)cc1-n1c(SCC(=O)NC2CC2)nc2ccccc2c1=O
cell number change: -6.74%
AC50 [2]: 0.184 µM [falling, full curve, poor fit]

O=C(COc1ccccc1)N1c2ccccc2Sc2ccccc21
cell number change: -8.75%
AC50 [2]: 13 µM [rising, partial curve, poor fit]

COCCNC(=O)NC(=O)COC(=O)C12CC3CC(CC(NC(C)=O)(C3)C1)C2
cell number change: 3.46%

Cc1ccc(S(=O)(=O)N(C)c2ccc(OC(=O)c3ccc(=O)[nH]c3)cc2)cc1
cell number change: -44.9%
AC50 [1]: 25.9 µM [falling, single point]
AC50 [2]: 4.61 µM [falling, partial curve, poor fit]

Cc1ccnc(Nc2nc(-c3ccccc3)cs2)c1
cell number change: -12.6%
AC50 [2]: 3.26 µM [falling, full curve, poor fit]

O=C1CC(SCc2nc3ccccc3[nH]2)C(=O)N1c1ccc(F)c(Cl)c1 (centres undefined)
cell number change: 38.7%
AC50 [1]: 29.1 µM [rising, single point]

CCOC(=O)N1CCN(C(=O)C2CCCN(c3ncnc4c3nc3n4CCCCC3)C2)CC1 (centres undefined)
cell number change: -48.4%
AC50 [1]: 32.6 µM [falling, single point]
AC50 [2]: 29.1 µM [falling, single point]

Cc1ccc(S(=O)(=O)c2nc(-c3ccccc3Cl)oc2N(C)C)cc1
cell number change: 10.8%
AC50 [2]: 5.17 µM [rising, partial curve]
